Data as given in PubChem BioAssay AID1224830 (NIAID, 2016).

Purpose: 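Genes whose knock-down alters the TNF-alpha reporter response to LPS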 (primary screen)
Cell system: human THP-1 monocytic leukaemia cells, TNF dual-luciferase reporter clone, PMA-differentiated to macrophage-like cells
Reagents: siRNA pool against human genes, 50 nM
Time to read-out: LPS for 4 h, given about 3 days after siRNA transfection
Conditions: bacterial LPS (TLR4 ligand), 10 ng/ml
Detection: 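TNF firefly reporter luminescence divided by renilla, normalised to the plate median, then turned into a robust z-score for each replicate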
Scale: TNF reporter robust z-score: higher = stronger TNF reporter response to LPS
Hit rule: 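Each well counts as active if its z-score is over 2.8 or under -1.5; controls are left without a call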
Shown is one part, drawn at random, of about 18,000 reagents. About 2,900 of all reagents (16%) count as active. 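Calls are made per well; low scores hint the gene aids the LPS response, high scores that it dampens it.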 Entries without a mark were called inactive. Repeated entries: four replicate wells of each siRNA pool.

For COX10, the entry reads TNF reporter robust z-score -0.39.
After knock-down of COX10, the screen gave TNF reporter robust z-score 0.2.
Against COX10, the values are TNF reporter robust z-score 0.63.
COX10 gave TNF reporter robust z-score 1.18.
Against PTDSS1 (phosphatidylserine synthase 1), the values are TNF reporter robust z-score -0.9.
Depletion of PTDSS1 (phosphatidylserine synthase 1) gave: TNF reporter robust z-score -0.34.
Depletion of PTDSS1 (phosphatidylserine synthase 1) came out at: TNF reporter robust z-score 0.79.
Silencing of PTDSS1 (phosphatidylserine synthase 1) resulted in: TNF reporter robust z-score 0.27.
NOTCH3 (notch receptor 3) gave TNF reporter robust z-score -0.59.
NOTCH3 (notch receptor 3) scored TNF reporter robust z-score 0.14.
NOTCH3 (notch receptor 3) gave TNF reporter robust z-score -0.03.
NOTCH3 (notch receptor 3) showed TNF reporter robust z-score 1.11.
IFNE (interferon epsilon) scored TNF reporter robust z-score 1.79.
After knock-down of IFNE (interferon epsilon), the record shows TNF reporter robust z-score 1.76.
With knock-down of IFNE (interferon epsilon), the record shows TNF reporter robust z-score 1.73.
After knock-down of IFNE (interferon epsilon) the results were TNF reporter robust z-score 1.32.
Knock-down of ECPAS (Ecm29 proteasome adaptor and scaffold) came out at: TNF reporter robust z-score -0.91.
After knock-down of ECPAS (Ecm29 proteasome adaptor and scaffold) the results were TNF reporter robust z-score 0.14.
For ECPAS (Ecm29 proteasome adaptor and scaffold), the entry reads TNF reporter robust z-score -0.43.
For ECPAS (Ecm29 proteasome adaptor and scaffold), the values are TNF reporter robust z-score 0.61.

8 neighbouring entries already listed:
PTDSS1 (phosphatidylserine synthase 1) | TNF reporter robust z-score: -0.9
PTDSS1 (phosphatidylserine synthase 1) | TNF reporter robust z-score: -0.34
PTDSS1 (phosphatidylserine synthase 1) | TNF reporter robust z-score: 0.79
PTDSS1 (phosphatidylserine synthase 1) | TNF reporter robust z-score: 0.27
NOTCH3 (notch receptor 3) | TNF reporter robust z-score: -0.59
NOTCH3 (notch receptor 3) | TNF reporter robust z-score: 0.14
NOTCH3 (notch receptor 3) | TNF reporter robust z-score: -0.03
NOTCH3 (notch receptor 3) | TNF reporter robust z-score: 1.11

Further entries follow:
After knock-down of CDK1 (cyclin dependent kinase 1) the results were TNF reporter robust z-score -1.03.
CDK1 (cyclin dependent kinase 1) showed TNF reporter robust z-score -0.69.
CDK1 (cyclin dependent kinase 1) gave TNF reporter robust z-score 0.5.
For CDK1 (cyclin dependent kinase 1) the deposit lists TNF reporter robust z-score -0.55.
After knock-down of RNASE6 (ribonuclease A family member 6) the results were TNF reporter robust z-score -1.49.
After knock-down of RNASE6 (ribonuclease A family member 6), the screen gave TNF reporter robust z-score -1.54 (active).
RNASE6 (ribonuclease A family member 6) gave TNF reporter robust z-score -0.2.
Against RNASE6 (ribonuclease A family member 6) the deposit lists TNF reporter robust z-score -0.58.
After knock-down of NRG1 (neuregulin 1) the results were TNF reporter robust z-score 0.39.
NRG1 (neuregulin 1) scored TNF reporter robust z-score 4.19 (active).
Silencing of NRG1 (neuregulin 1) gave: TNF reporter robust z-score 3.23 (active).
For NRG1 (neuregulin 1), the entry reads TNF reporter robust z-score 1.59.
WDFY2 (WD repeat and FYVE domain containing 2) gave TNF reporter robust z-score -0.2.
After knock-down of WDFY2 (WD repeat and FYVE domain containing 2) the results were TNF reporter robust z-score -0.27.
Against WDFY2 (WD repeat and FYVE domain containing 2), the entry reads TNF reporter robust z-score 0.31.
WDFY2 (WD repeat and FYVE domain containing 2) scored TNF reporter robust z-score 1.34.
For ASH2L (ASH2 like, histone lysine methyltransferase complex subunit), the values are TNF reporter robust z-score -1.3.
For ASH2L (ASH2 like, histone lysine methyltransferase complex subunit), the values are TNF reporter robust z-score -1.57 (active).
For ASH2L (ASH2 like, histone lysine methyltransferase complex subunit), the entry reads TNF reporter robust z-score -1.36.
For ASH2L (ASH2 like, histone lysine methyltransferase complex subunit), the values are TNF reporter robust z-score -1.37.
With knock-down of MOB1A (MOB kinase activator 1A), the record shows TNF reporter robust z-score 0.4.
Depletion of MOB1A (MOB kinase activator 1A) gave: TNF reporter robust z-score 0.05.
Knock-down of MOB1A (MOB kinase activator 1A) came out at: TNF reporter robust z-score 0.47.
Depletion of MOB1A (MOB kinase activator 1A) came out at: TNF reporter robust z-score 1.27.
Against UNC13B (unc-13 homolog B), the entry reads TNF reporter robust z-score 1.38.
For UNC13B (unc-13 homolog B) the deposit lists TNF reporter robust z-score -0.2.
For UNC13B (unc-13 homolog B), the values are TNF reporter robust z-score 0.91.
With knock-down of UNC13B (unc-13 homolog B) the results were TNF reporter robust z-score 0.98.
